Assay results taken from the supplement of paper PMC10973195.
± gives the standard deviation of the averaged measurements. Some of the results follow. These are raw signals, not scaled to a control.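 In this assay, LPS from bacteria induces microglia-mediated neuronal death in a neuron–microglia–astrocyte co-culture, a model of inflammatory neurodegeneration. Compounds were compared against same-plate DMSO vehicle wells, with the SYK inhibitor BAY61-3606 as reference neuroprotective control.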

Legend:
Settings in all cases: 1 µM, treatment time 3 days
[1] = test system: rat primary cerebellar neuron-glia coculture; assay: microglia count (IB4+) per image field (cells per field); higher = more microglia
[2] = test system: rat primary cerebellar neuron-glia coculture; assay: necrotic cell count (DRAQ7+) per image field (cells per field); higher = more necrosis
[3] = test system: rat primary cerebellar neuron-glia coculture; assay: live neuron count (NeuO+) per image field (cells per field); higher = more surviving neurons
[4] = test system: rat primary cerebellar neuron-glia coculture; assay: median microglial FormFactor (circularity) per image (dimensionless (0-1)); higher = rounder, more ameboid microglia

Compound	microglia count ([1]; LPS 0 ng/mL)	microglia count ([1]; LPS 100 ng/mL)	necrotic cell count ([2]; LPS 0 ng/mL)	necrotic cell count ([2]; LPS 100 ng/mL)	live neuron count ([3]; LPS 0 ng/mL)	live neuron count ([3]; LPS 100 ng/mL)	median microglial FormFactor ([4]; LPS 0 ng/mL)	median microglial FormFactor ([4]; LPS 100 ng/mL)
COc1ccc(-c2nc(-c3cccs3)[nH]c2-c2ccc(OC)cc2)cc1	172 ± 52	572 ± 130	76.2 ± 28	799 ± 350	2650 ± 510	581 ± 540	0.554 ± 0.083	0.495 ± 0.087
CCCN1CCN(c2ccc(C(=O)NC3(C(=O)NCC#N)CCCCC3)cc2)CC1	165 ± 35	432 ± 90	87.7 ± 39	1060 ± 300	2620 ± 520	218 ± 140	0.567 ± 0.1	0.673 ± 0.066
O=C(Nc1cccc(C(F)(F)F)c1)Nc1cc(S(=O)(=O)NC2CC2)ccc1-c1ccsc1	202 ± 60	431 ± 96	73.1 ± 26	990 ± 380	2600 ± 450	260 ± 340	0.514 ± 0.12	0.675 ± 0.061
O=c1ncn2nc(Sc3ccc(F)cc3F)ccc2c1-c1c(Cl)cccc1Cl	316 ± 420	486 ± 84	73.7 ± 21	399 ± 230	2300 ± 590	1520 ± 840	0.533 ± 0.077	0.572 ± 0.069
CCN(CC)C(=O)Cc1csc(NS(=O)(=O)c2cccc(Cl)c2C)n1	177 ± 59	435 ± 77	90 ± 38	970 ± 220	2630 ± 380	346 ± 300	0.542 ± 0.083	0.61 ± 0.082
CCCC(=O)C1CCN(c2ncnc3c2CN(C(=O)c2ccc(-c4ccccc4)cc2)CC3)CC1	194 ± 84	457 ± 140	70.9 ± 33	657 ± 330	2480 ± 580	896 ± 540	0.573 ± 0.075	0.674 ± 0.1
NC(=O)c1ccc(-c2nc(-c3ccccn3)c(-c3ccc4c(c3)OCO4)[nH]2)cc1	160 ± 28	435 ± 60	88.7 ± 32	1460 ± 360	2640 ± 470	67.3 ± 48	0.575 ± 0.1	0.581 ± 0.046
O=C(O)CCNc1cc(N2CCc3ccccc3CC2)nc(-c2ccccn2)n1	169 ± 82	456 ± 140	93.1 ± 38	854 ± 290	2520 ± 620	599 ± 610	0.517 ± 0.096	0.601 ± 0.079
CCN(CC)c1ccc(NC(=O)c2oc3ccccc3c2C)cc1	229 ± 180	404 ± 79			2530 ± 360	355 ± 490	0.54 ± 0.063	0.694 ± 0.087
COc1ccc(C(=O)C(=O)c2ccc(OC)cc2)cc1	169 ± 47	401 ± 88			2660 ± 380	612 ± 900	0.566 ± 0.074	0.65 ± 0.066
O=C1Nc2ccc(I)cc2/C1=C/c1cc(Br)c(O)c(Br)c1	154 ± 38	431 ± 88	96.7 ± 31	1000 ± 320	2470 ± 700	312 ± 270	0.545 ± 0.06	0.656 ± 0.066
CCCCCCCCCCCCC/C=C/[C@@H](O)[C@@H](N)COP(=O)(O)O	181 ± 63	447 ± 67	86.2 ± 25	819 ± 260	2580 ± 380	437 ± 400	0.538 ± 0.09	0.654 ± 0.045
c1ccc(-c2ccc(C(c3ccccc3)n3ccnc3)cc2)cc1 (centres undefined)	159 ± 150	548 ± 85	285 ± 110	195 ± 52	2380 ± 580	2670 ± 490	0.729 ± 0.12	0.509 ± 0.042
O=C1NCCCc2c1oc1ccc(O)cc21	172 ± 27	431 ± 90	97.2 ± 40	953 ± 360	3080 ± 380	485 ± 480	0.491 ± 0.09	0.634 ± 0.074
N#C[C@@H]1CC(F)(F)CN1C(=O)CNC(=O)c1ccnc2ccccc12	170 ± 49	443 ± 68	83.8 ± 28	935 ± 200	2650 ± 400	364 ± 250	0.52 ± 0.077	0.661 ± 0.056
Cc1ccc(C(=O)N(CCCN)[C@@H](c2nc3cc(Cl)ccc3c(=O)n2Cc2ccccc2)C(C)C)cc1	208 ± 68	384 ± 73	85.2 ± 26	869 ± 330	1990 ± 380	294 ± 320	0.453 ± 0.082	0.701 ± 0.084
Cc1nc(-c2cnn(C)c2-c2ccc(C(F)(F)F)cn2)c2c(N3CCC3)ncnn12	199 ± 90	429 ± 86	83.2 ± 32	993 ± 220	2590 ± 430	231 ± 240	0.576 ± 0.08	0.677 ± 0.071
CC(C)C(NC(=O)/C(=C\c1ccccc1F)NC(=O)c1ccccc1)C(=O)O (centres undefined)	154 ± 46	448 ± 100	89.4 ± 30	935 ± 370	2760 ± 410	543 ± 710	0.547 ± 0.11	0.652 ± 0.11
O=C(Nc1cccnc1)c1ccc(Cl)cc1	205 ± 140	474 ± 160	84.8 ± 32	994 ± 440	2690 ± 400	383 ± 610	0.538 ± 0.092	0.653 ± 0.089
O=C1C2C=Nc3ccccc3C2=NN1c1ccc(Cl)cc1 (centres undefined)	286 ± 370	474 ± 100			2470 ± 610	574 ± 590	0.554 ± 0.067	0.602 ± 0.092
O=C(NOC[C@H](O)CO)c1ccc(F)c(F)c1Nc1ccc(I)cc1F	20.5 ± 10	117 ± 34	328 ± 88	1540 ± 740	2780 ± 260	1450 ± 970	0.566 ± 0.074	0.699 ± 0.044
COc1cc2c(CCNC(C)=O)c[nH]c2cc1Cl	192 ± 74	414 ± 71	83 ± 33	1060 ± 440	2640 ± 400	221 ± 200	0.528 ± 0.079	0.704 ± 0.037
Cc1nccn1CC1CCc2c(c3ccccc3n2C)C1=O (centres undefined)	183 ± 70	455 ± 91	82.1 ± 38	900 ± 330	2670 ± 540	348 ± 360	0.542 ± 0.092	0.664 ± 0.072
Clc1ccc(CNc2nc3ccccc3[nH]2)cc1Cl	192 ± 41	424 ± 82	65.7 ± 27	804 ± 340	1550 ± 330	451 ± 360	0.472 ± 0.056	0.663 ± 0.082
CC(C)NC[C@@H](C(=O)N1CCN(c2ncnc3c2[C@H](C)C[C@H]3O)CC1)c1ccc(Cl)cc1	145 ± 58	430 ± 74	99.9 ± 26	940 ± 400	2480 ± 470	578 ± 950	0.581 ± 0.086	0.701 ± 0.071

Laid out differently: 2 of the compounds above.
Compound,microglia count ([1]; LPS 0 ng/mL),microglia count ([1]; LPS 100 ng/mL),necrotic cell count ([2]; LPS 0 ng/mL),necrotic cell count ([2]; LPS 100 ng/mL),live neuron count ([3]; LPS 0 ng/mL),live neuron count ([3]; LPS 100 ng/mL),median microglial FormFactor ([4]; LPS 0 ng/mL),median microglial FormFactor ([4]; LPS 100 ng/mL)
NC(=O)c1ccc(-c2nc(-c3ccccn3)c(-c3ccc4c(c3)OCO4)[nH]2)cc1,160 ± 28,435 ± 60,88.7 ± 32,1460 ± 360,2640 ± 470,67.3 ± 48,0.575 ± 0.1,0.581 ± 0.046
Cc1nc(-c2cnn(C)c2-c2ccc(C(F)(F)F)cn2)c2c(N3CCC3)ncnn12,199 ± 90,429 ± 86,83.2 ± 32,993 ± 220,2590 ± 430,231 ± 240,0.576 ± 0.08,0.677 ± 0.071
